# From article PMC8384837
# Numbering of substitutions follows the chain as printed. The list shows a part of the results. For some assays here: At the low end of the ranking the order means little.
# Columns and labels:
# Conditions in all cases: yeast three-hybrid, YBZ-1, SC-Leu-His + 0.5 mM 3-AT, 4 days
# [1] = molecular target: T1, PUM1 PUF domain R1-QFR R2-VFQ R7-NPG S863Q + R864F + Q867R + N899V + Y900F + S1079N + N1080P + E1083G (UniProt Q14671)
# T1 sequence: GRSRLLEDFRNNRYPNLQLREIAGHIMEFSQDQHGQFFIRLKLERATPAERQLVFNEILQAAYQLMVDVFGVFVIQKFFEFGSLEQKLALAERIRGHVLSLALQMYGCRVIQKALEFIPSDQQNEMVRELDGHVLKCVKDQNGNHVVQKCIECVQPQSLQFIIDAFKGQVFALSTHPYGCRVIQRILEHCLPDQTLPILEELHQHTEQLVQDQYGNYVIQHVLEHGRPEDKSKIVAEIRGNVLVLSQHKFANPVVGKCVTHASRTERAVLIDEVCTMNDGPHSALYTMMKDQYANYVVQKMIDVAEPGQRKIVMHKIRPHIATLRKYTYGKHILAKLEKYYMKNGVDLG
# [2] = molecular target: T2, PUM1 PUF domain R3-THE R4-TFR C935T + R936H + Q939E + N971T + H972F + Q975R (UniProt Q14671)
# T2 sequence: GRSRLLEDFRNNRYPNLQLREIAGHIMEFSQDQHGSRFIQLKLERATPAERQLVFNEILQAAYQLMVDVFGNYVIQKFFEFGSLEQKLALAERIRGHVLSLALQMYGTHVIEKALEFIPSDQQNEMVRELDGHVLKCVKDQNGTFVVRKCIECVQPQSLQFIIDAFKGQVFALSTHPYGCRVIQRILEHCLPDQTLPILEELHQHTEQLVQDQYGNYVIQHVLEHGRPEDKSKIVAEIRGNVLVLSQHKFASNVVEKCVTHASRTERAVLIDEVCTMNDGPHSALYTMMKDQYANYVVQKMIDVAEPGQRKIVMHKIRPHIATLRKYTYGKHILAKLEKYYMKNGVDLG
# [3] = molecular target: T3, PUM1 PUF domain R5-AFF C1007A + R1008F + Q1011F (Homo sapiens) (UniProt Q14671)
# T3 sequence: T2 sequence with T108C, H109R, E112Q, T144N, F145H, R148Q, C180A, R181F, Q184F
# [4] = molecular target: T4, PUM1 PUF domain R5-CGR R1008G + Q1011R (Homo sapiens) (UniProt Q14671)
# T4 sequence: T2 sequence with T108C, H109R, E112Q, T144N, F145H, R148Q, R181G, Q184R
# [5] = molecular target: T5, PUM1 PUF domain R5-CRR Q1011R (Homo sapiens) (UniProt Q14671)
# T5 sequence: T2 sequence with T108C, H109R, E112Q, T144N, F145H, R148Q, Q184R
# [6] = molecular target: T6, PUM1 PUF domain R5-CSR R1008S + Q1011R (Homo sapiens) (UniProt Q14671)
# T6 sequence: T2 sequence with T108C, H109R, E112Q, T144N, F145H, R148Q, R181S, Q184R
# [7] = molecular target: T7, PUM1 PUF domain R5-CTR R1008T + Q1011R (UniProt Q14671)
# T7 sequence: T2 sequence with T108C, H109R, E112Q, T144N, F145H, R148Q, R181T, Q184R
# [8] = molecular target: T8, PUM1 PUF domain R5-DCR C1007D + R1008C + Q1011R (UniProt Q14671)
# T8 sequence: T2 sequence with T108C, H109R, E112Q, T144N, F145H, R148Q, C180D, R181C, Q184R
# [9] = molecular target: T9, PUM1 PUF domain R5-DLR C1007D + R1008L + Q1011R (UniProt Q14671)
# T9 sequence: T2 sequence with T108C, H109R, E112Q, T144N, F145H, R148Q, C180D, R181L, Q184R
# [10] = molecular target: T10, PUM1 PUF domain R5-DYG C1007D + R1008Y + Q1011G (UniProt Q14671)
# T10 sequence: T2 sequence with T108C, H109R, E112Q, T144N, F145H, R148Q, C180D, R181Y, Q184G
# [11] = molecular target: T11, PUM1 PUF domain R5-ERC C1007E + Q1011C (Homo sapiens) (UniProt Q14671)
# T11 sequence: T2 sequence with T108C, H109R, E112Q, T144N, F145H, R148Q, C180E, Q184C
# [12] = molecular target: T12, PUM1 PUF domain R5-ERG C1007E + Q1011G (Homo sapiens) (UniProt Q14671)
# T12 sequence: T2 sequence with T108C, H109R, E112Q, T144N, F145H, R148Q, C180E, Q184G
# [13] = molecular target: T13, PUM1 PUF domain R5-ERK C1007E + Q1011K (Homo sapiens) (UniProt Q14671)
# T13 sequence: T2 sequence with T108C, H109R, E112Q, T144N, F145H, R148Q, C180E, Q184K
# [14] = molecular target: T14, PUM1 PUF domain R5-EVC C1007E + R1008V + Q1011C (Homo sapiens) (UniProt Q14671)
# T14 sequence: T2 sequence with T108C, H109R, E112Q, T144N, F145H, R148Q, C180E, R181V, Q184C
# [15] = molecular target: T15, PUM1 PUF domain R5-FRC C1007F + Q1011C (UniProt Q14671)
# T15 sequence: T2 sequence with T108C, H109R, E112Q, T144N, F145H, R148Q, C180F, Q184C
# [16] = molecular target: T16, PUM1 PUF domain R5-FRD C1007F + Q1011D (UniProt Q14671)
# T16 sequence: T2 sequence with T108C, H109R, E112Q, T144N, F145H, R148Q, C180F, Q184D
# [17] = molecular target: T17, PUM1 PUF domain R5-GGE C1007G + R1008G + Q1011E (Homo sapiens) (UniProt Q14671)
# T17 sequence: T2 sequence with T108C, H109R, E112Q, T144N, F145H, R148Q, C180G, R181G, Q184E
# [18] = molecular target: T18, PUM1 PUF domain R5-GHG C1007G + R1008H + Q1011G (UniProt Q14671)
# T18 sequence: T2 sequence with T108C, H109R, E112Q, T144N, F145H, R148Q, C180G, R181H, Q184G
# [19] = molecular target: T19, PUM1 PUF domain R5-GKC C1007G + R1008K + Q1011C (UniProt Q14671)
# T19 sequence: T2 sequence with T108C, H109R, E112Q, T144N, F145H, R148Q, C180G, R181K, Q184C
# [20] = molecular target: T20, PUM1 PUF domain R5-GLR C1007G + R1008L + Q1011R (UniProt Q14671)
# T20 sequence: T2 sequence with T108C, H109R, E112Q, T144N, F145H, R148Q, C180G, R181L, Q184R
# [21] = molecular target: T21, PUM1 PUF domain R5-GSE C1007G + R1008S + Q1011E (Homo sapiens) (UniProt Q14671)
# T21 sequence: T2 sequence with T108C, H109R, E112Q, T144N, F145H, R148Q, C180G, R181S, Q184E
# [22] = molecular target: T22, PUM1 PUF domain R5-GTE C1007G + R1008T + Q1011E (UniProt Q14671)
# T22 sequence: T2 sequence with T108C, H109R, E112Q, T144N, F145H, R148Q, C180G, R181T, Q184E
# [23] = molecular target: T23, PUM1 PUF domain R5-GVD C1007G + R1008V + Q1011D (Homo sapiens) (UniProt Q14671)
# T23 sequence: T2 sequence with T108C, H109R, E112Q, T144N, F145H, R148Q, C180G, R181V, Q184D
sequence,measurement,setting,value
GGCUAGAACUAGUGGAUCCCCCGGCGCCCGGCGGCUCGAGCCCGGGUAAGUGUUAAUAGUCUGCAUGCCGCCGGGCGCCAUGCCUGCAGGUCGACUCUAGAAAACAUG,binding signal (log2 enrichment (interaction score)),[1],-4.8
same,binding signal (log2 enrichment (interaction score)),[2],-5.93
same,binding signal (log2 enrichment (interaction score)),[3],-2.24
same,binding signal (log2 enrichment (interaction score)),[4],-1.95
same,binding signal (log2 enrichment (interaction score)),[5],-0.76
same,binding signal (log2 enrichment (interaction score)),[6],0.23
same,binding signal (log2 enrichment (interaction score)),[7],-4.98
same,binding signal (log2 enrichment (interaction score)),[8],-2.65
same,binding signal (log2 enrichment (interaction score)),[9],-2.31
same,binding signal (log2 enrichment (interaction score)),[10],-4.76
same,binding signal (log2 enrichment (interaction score)),[11],0.48
same,binding signal (log2 enrichment (interaction score)),[12],-0.55
same,binding signal (log2 enrichment (interaction score)),[13],-0.35
same,binding signal (log2 enrichment (interaction score)),[14],-1.94
same,binding signal (log2 enrichment (interaction score)),[15],-4.25
same,binding signal (log2 enrichment (interaction score)),[16],-4.38
same,binding signal (log2 enrichment (interaction score)),[17],-1.63
same,binding signal (log2 enrichment (interaction score)),[18],-3.18
same,binding signal (log2 enrichment (interaction score)),[19],-9.44
same,binding signal (log2 enrichment (interaction score)),[20],-4.1
same,binding signal (log2 enrichment (interaction score)),[21],-1.89
same,binding signal (log2 enrichment (interaction score)),[22],-5.6
same,binding signal (log2 enrichment (interaction score)),[23],-1.63

# In another format: entries from further up.
sequence | measurement | setting | value
GGCUAGAACUAGUGGAUCCCCCGGCGCCCGGCGGCUCGAGCCCGGGUAAGUGUUAAUAGUCUGCAUGCCGCCGGGCGCCAUGCCUGCAGGUCGACUCUAGAAAACAUG | binding signal (log2 enrichment (interaction score)) | [2] | -5.93
same | binding signal (log2 enrichment (interaction score)) | [3] | -2.24
